At least one peptide structure holds a part that was inferred or is arguable (an end, a ring closure or a residue). Residues, ends and D or L forms follow the SMILES beside them.
System: B16-BL6 murine melanoma cells
Assay: Inhibition of lung colonization of co-injected B16-BL6 melanoma cells in C57BL/6 mice
Format: in vivo
Settings: co-injection with B16-BL6 cells, 14 days after injection, vs B16-BL6 alone
Procedure: 1×10^5 cells/0.2 ml/mouse B16-BL6 cells were injected into the lateral tail vein of unanesthetized C57BL/6 mice. The mice were monitored on a daily basis and sacrificed 2 weeks later by cervical dislocation. The animals were necropsied, and the lungs were removed, washed in water, and fixed in Bouin's solution (containing saturated solution of picric acid, 2% glacial acetic acid and 3% formaldehyde). The number of lung nodules was determined under a dissecting microscope.
B16-BL6 cell monolayers in culture were detached for 2 mins. with 0.02% EDTA and resuspended gently to 1×10^5 cells/0.2 ml DMEM. 0.5 mg/1×10^5 cells/0.2 ml of Th-1 was preincubated, at 37° C. for 30 mins, with a half of the cells' cultures prior to injecting mice. A single cell suspension (1×10^5 cells/0.2 ml/mouse), comprising either Th-1 treated or Th-1 untreated melanoma cells was injected slowly into the lateral tail vein of C57BL/6 mice.
Fourteen days after injection, the mice were sacrificed, and their lungs were excised and fixed with 10% formaldehyde and stained with saturated picric acid. The number of surface melanoma colonies was counted visually or with the aid of a dissecting microscope.

Structure (SMILES): C[C@H](N)C(=O)NCC(=O)N[C@@H](Cc1ccc(O)cc1)C(=O)N[C@@H](CCCCN)C(=O)N1CCC[C@H]1C(=O)N[C@@H](CC(=O)O)C(=O)N[C@@H](CCC(=O)O)C(=O)NCC(=O)N[C@@H](CCCCN)C(=O)N[C@@H](CCCNC(=N)N)C(=O)NCC(=O)N[C@@H](CCC(=O)O)C(=O)N[C@@H](C)C(=O)N[C@@H](CS)C(=O)O [reference compound] (H-AGYKPDEGKRGEAC-OH)
- effect on melanotic colonies in the lungs: did not affect
